Data published in the supplement of paper PMC4604168 (melanoma cell lines).
Some of the results follow. Repeats are few or missing, and single values can be far off.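 Imaging used 1,536-well plates; nuclei positive for cleaved PARP by antibody were divided by total DNA-stained nuclei to yield the apoptosis fraction. Doses for screening kept most cells viable, and cell lines differ markedly in resting and induced cleaved-PARP levels.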

Each compound was assayed on IPC-298 (assay: cleaved PARP positive nuclei fraction relative to DMSO control; melanoma cells; higher = more apoptosis). Details: library dose: low library concentration; 72 h.

| Structure (SMILES) | cleaved PARP positive nuclei fraction [%] |
| --- | --- |
| Cn1cncc1[C@@](N)(c1ccc(Cl)cc1)c1ccc2c(c1)c(-c1cccc(Cl)c1)cc(=O)n2C [tipifarnib] + c1cc(-c2cnn3cc(-c4ccc(OCCN5CCCCC5)cc4)cnc23)ccn1 [Dorsomorphin] (first compound 0.01 µM, partner dose 0.4 µM) | 117 |
| Cc1cc(N2CCOCC2)cc2[nH]c(-c3c(NC[C@@H](O)c4cccc(Cl)c4)cc[nH]c3=O)nc12 + Cn1cc(/C=C2\C(=O)Nc3cccnc32)c2ccccc21 [GW441756] (first compound 0.2 µM, partner dose 0.4 µM) | 86.8 |
| Cn1c(Nc2ccc(C(F)(F)F)cc2)nc2cc(Oc3ccnc(-c4ncc(C(F)(F)F)[nH]4)c3)ccc21 + Oc1nc(-c2ccc(C(F)(F)F)cc2)nc2c1CSCC2 [XAV939] (first compound 0.08 µM, partner dose 2 µM) | 162 |
| Cn1nnc2c(C(N)=O)ncn2c1=O [temozolomide] + CC(C)CCN1c2nc(Nc3cc(F)c(O)c(F)c3)ncc2N(C)C(=O)C1C [BID1870] (first compound 2 µM, partner dose 0.2 µM) | 87 |
| C[C@]1(c2nc3c(C(N)=O)cccc3[nH]2)CCCN1 [Veliparib] + O=C(O)C(=O)Nc1sc2c(c1C(=O)O)CCNC2 [TCS401] (first compound 1.4 µM, partner dose 1.66667 µM) | 80.4 |
| O=C(Nc1cccc(Cl)c1)Nc1ncc(CCNc2ncnc3ccsc23)s1 + COc1cc2ncnc(Nc3ccc(Oc4ccccc4)cc3)c2cc1OC [SrcI1] (first compound 0.0008 µM, partner dose 2 µM) | 42.8 |
| NC(=O)Nc1cc(-c2cccc(F)c2)sc1C(=O)N[C@H]1CCCNC1 + O=c1cc(-c2cccc3c2Sc2ccccc2S3)oc(N2CCOCC2)c1 [KU55933] (first compound 0.02 µM, partner dose 1 µM) | 305 |
| CC(C)(C)c1cnc(CSc2cnc(NC(=O)C3CCNCC3)s2)o1 + N#Cc1c(O)c2c(-c3ccc(-c4ccccc4O)cc3)csc2[nH]c1=O [A769662] (first compound 0.01 µM, partner dose 2 µM) | 86 |

Fetched one by one from the entries so far (2):

| Structure (SMILES) | cleaved PARP positive nuclei fraction [%] |
| --- | --- |
| NC(=O)Nc1cc(-c2cccc(F)c2)sc1C(=O)N[C@H]1CCCNC1 + O=c1cc(-c2cccc3c2Sc2ccccc2S3)oc(N2CCOCC2)c1 [KU55933] (first compound 0.02 µM, partner dose 1 µM) | 305 |
| CC(C)(C)c1cnc(CSc2cnc(NC(=O)C3CCNCC3)s2)o1 + N#Cc1c(O)c2c(-c3ccc(-c4ccccc4O)cc3)csc2[nH]c1=O [A769662] (first compound 0.01 µM, partner dose 2 µM) | 86 |

The compounds below were run on IST-MEL1 in the same assay as above. Details: library dose: low library concentration; 72 h.

| Structure (SMILES) | cleaved PARP positive nuclei fraction [%] |
| --- | --- |
| C=CCn1c(=O)c2cnc(Nc3ccc(N4CCN(C)CC4)cc3)nc2n1-c1cccc(C(C)(C)O)n1 + O=S(=O)(c1ccccc1)N(CC(F)(F)F)c1ccc(C(O)(C(F)(F)F)C(F)(F)F)cc1 [T0901317] (first compound 0.02 µM, partner dose 1.4 µM) | 28.7 |
| O=C(Nc1cccc(Cl)c1)Nc1ncc(CCNc2ncnc3ccsc23)s1 + COc1cc(N2CCC(N3CCN(C)CC3)CC2)ccc1Nc1ncc(Cl)c(Nc2ccccc2S(=O)(=O)C(C)C)n1 [NVP-TAE684] (first compound 0.0008 µM, partner dose 0.08 µM) | 152 |
| C[C@]1(c2nc3c(C(N)=O)cccc3[nH]2)CCCN1 [Veliparib] + COc1cc2ncnc(Nc3ccc(Oc4ccccc4)cc3)c2cc1OC [SrcI1] (first compound 1.4 µM, partner dose 2 µM) | 83.5 |
| Cn1c(Nc2ccc(C(F)(F)F)cc2)nc2cc(Oc3ccnc(-c4ncc(C(F)(F)F)[nH]4)c3)ccc21 + COc1ccc(COc2ccc(Cc3cnc(N)nc3N)cc2OC)cc1 [GW2580] (first compound 0.08 µM, partner dose 1 µM) | 142 |
| COCC[n+]1c2c(n(Cc3cnccn3)c1C)C(=O)c1ccccc1C2=O + COc1ccc(COc2ccc(Cc3cnc(N)nc3N)cc2OC)cc1 [GW2580] (first compound 0.0004 µM, partner dose 1 µM) | 93 |
| Cc1ccc(NC(=O)c2cccc(N(C)C)c2)cc1NC(=O)c1ccc(O)cc1 + COC(=O)c1sccc1S(=O)(=O)Nc1ccc(Nc2ccccc2)cc1OC [GSK0660] (first compound 2 µM, partner dose 1 µM) | 479 |
| COCC[n+]1c2c(n(Cc3cnccn3)c1C)C(=O)c1ccccc1C2=O + CC(C)CCN1c2nc(Nc3cc(F)c(O)c(F)c3)ncc2N(C)C(=O)C1C [BID1870] (first compound 0.0004 µM, partner dose 0.2 µM) | 46 |
| CC(C)(C)c1cnc(CSc2cnc(NC(=O)C3CCNCC3)s2)o1 + Cc1cc([N+](=O)[O-])ccc1NS(=O)(=O)c1cc(Cl)ccc1Cl [FH535] (first compound 0.01 µM, partner dose 1 µM) | 184 |
| Cc1ccc(NC(=O)c2cccc(N(C)C)c2)cc1NC(=O)c1ccc(O)cc1 + CCCCCCCCCCCC1=C(O)C(=O)C=C(O)C1=O [Embelin] (first compound 2 µM, partner dose 1.2 µM) | 108 |
| Cc1ccc(NC(=O)c2cccc(N(C)C)c2)cc1NC(=O)c1ccc(O)cc1 + COc1cc(N2CCC(N3CCN(C)CC3)CC2)ccc1Nc1ncc(Cl)c(Nc2ccccc2S(=O)(=O)C(C)C)n1 [NVP-TAE684] (first compound 2 µM, partner dose 0.08 µM) | 129 |
| Cn1cncc1[C@@](N)(c1ccc(Cl)cc1)c1ccc2c(c1)c(-c1cccc(Cl)c1)cc(=O)n2C [tipifarnib] + CCc1ccc(CCOc2ccc(CC3SC(=O)NC3=O)cc2)nc1 [pioglitazone] (first compound 0.01 µM, partner dose 2 µM) | 46 |
| O=C(CCCCCCC(=O)Nc1ccccc1)NO [vorinostat] + COc1cc(N2CCC(N3CCN(C)CC3)CC2)ccc1Nc1ncc(Cl)c(Nc2ccccc2S(=O)(=O)C(C)C)n1 [NVP-TAE684] (first compound 0.08 µM, partner dose 0.08 µM) | 131 |
| O=C(Nc1cccc(Cl)c1)Nc1ncc(CCNc2ncnc3ccsc23)s1 + COC(=O)c1sccc1S(=O)(=O)Nc1ccc(Nc2ccccc2)cc1OC [GSK0660] (first compound 0.0008 µM, partner dose 1 µM) | 277 |
| C=CCn1c(=O)c2cnc(Nc3ccc(N4CCN(C)CC4)cc3)nc2n1-c1cccc(C(C)(C)O)n1 + CC(C)CCN1c2nc(Nc3cc(F)c(O)c(F)c3)ncc2N(C)C(=O)C1C [BID1870] (first compound 0.02 µM, partner dose 0.2 µM) | 163 |
| CO[C@@H]1[C@H](N(C)C(=O)c2ccccc2)C[C@H]2O[C@]1(C)n1c3ccccc3c3c4c(c5c6ccccc6n2c5c31)C(=O)NC4 [Midostaurin] + O=S(=O)(c1ccccc1)N(CC(F)(F)F)c1ccc(C(O)(C(F)(F)F)C(F)(F)F)cc1 [T0901317] (first compound 0.08 µM, partner dose 1.4 µM) | 176 |
| Nc1cccc2c1CN(C1CCC(=O)NC1=O)C2=O (stereo not drawn) [lenalidomide] + COC(=O)c1sccc1S(=O)(=O)Nc1ccc(Nc2ccccc2)cc1OC [GSK0660] (first compound 1 µM, partner dose 1 µM) | 87.5 |
| O=C(Nc1cccc(Cl)c1)Nc1ncc(CCNc2ncnc3ccsc23)s1 + CCc1ccc(CCOc2ccc(CC3SC(=O)NC3=O)cc2)nc1 [pioglitazone] (first compound 0.0008 µM, partner dose 2 µM) | 43.5 |
| COCC[n+]1c2c(n(Cc3cnccn3)c1C)C(=O)c1ccccc1C2=O + O=c1cc(-c2cccc3c2Sc2ccccc2S3)oc(N2CCOCC2)c1 [KU55933] (first compound 0.0004 µM, partner dose 1 µM) | 63.9 |
| Nc1cccc2c1CN(C1CCC(=O)NC1=O)C2=O (stereo not drawn) [lenalidomide] + COc1ccc(-c2ccc3c(N4CCOCC4)nc(N4C[C@@H](C)O[C@@H](C)C4)nc3n2)cc1CO [KU0063794] (first compound 1 µM, partner dose 0.02 µM) | 344 |
| NC(=O)Nc1cc(-c2cccc(F)c2)sc1C(=O)N[C@H]1CCCNC1 + Cn1cc(/C=C2\C(=O)Nc3cccnc32)c2ccccc21 [GW441756] (first compound 0.02 µM, partner dose 0.4 µM) | 99.8 |
| COc1cc(Nc2ncc(F)c(Nc3ccc4c(n3)NC(=O)C(C)(C)O4)n2)cc(OC)c1OC [Tamatinib] + COc1cc(N2CCC(N3CCN(C)CC3)CC2)ccc1Nc1ncc(Cl)c(Nc2ccccc2S(=O)(=O)C(C)C)n1 [NVP-TAE684] (first compound 0.4 µM, partner dose 0.08 µM) | 30.2 |
| NC(=O)Nc1cc(-c2cccc(F)c2)sc1C(=O)N[C@H]1CCCNC1 + CCN(CC)CCCCNc1ncc2cc(-c3cc(OC)cc(OC)c3)c(NC(=O)NC(C)(C)C)nc2n1 [PD173074] (first compound 0.02 µM, partner dose 0.1 µM) | 49.5 |
| O=C(CCCCCCC(=O)Nc1ccccc1)NO [vorinostat] + CCCCCCCCCCCC1=C(O)C(=O)C=C(O)C1=O [Embelin] (first compound 0.08 µM, partner dose 1.2 µM) | 89.9 |
| O=C(Nc1cccc(Cl)c1)Nc1ncc(CCNc2ncnc3ccsc23)s1 + COc1ccc(-c2ccc3c(N4CCOCC4)nc(N4C[C@@H](C)O[C@@H](C)C4)nc3n2)cc1CO [KU0063794] (first compound 0.0008 µM, partner dose 0.02 µM) | 114 |
| Cc1nc(Nc2ncc(C(=O)Nc3c(C)cccc3Cl)s2)cc(N2CCN(CCO)CC2)n1 [dasatanib] + CCN(CC)CCCCNc1ncc2cc(-c3cc(OC)cc(OC)c3)c(NC(=O)NC(C)(C)C)nc2n1 [PD173074] (first compound 0.004 µM, partner dose 0.1 µM) | 99.5 |
